Assay results: paper PMC7576810

By UniProt entry, the sequences of proteins in these tests, tags left out. Where a name states a change or a piece, a line headed by the entry shows the natural chain unless it says otherwise. Chains listed by the source or under a name are the forms on record and can include a tag or linker.
Flag-tagged EVI1-WT (Q03112, form named): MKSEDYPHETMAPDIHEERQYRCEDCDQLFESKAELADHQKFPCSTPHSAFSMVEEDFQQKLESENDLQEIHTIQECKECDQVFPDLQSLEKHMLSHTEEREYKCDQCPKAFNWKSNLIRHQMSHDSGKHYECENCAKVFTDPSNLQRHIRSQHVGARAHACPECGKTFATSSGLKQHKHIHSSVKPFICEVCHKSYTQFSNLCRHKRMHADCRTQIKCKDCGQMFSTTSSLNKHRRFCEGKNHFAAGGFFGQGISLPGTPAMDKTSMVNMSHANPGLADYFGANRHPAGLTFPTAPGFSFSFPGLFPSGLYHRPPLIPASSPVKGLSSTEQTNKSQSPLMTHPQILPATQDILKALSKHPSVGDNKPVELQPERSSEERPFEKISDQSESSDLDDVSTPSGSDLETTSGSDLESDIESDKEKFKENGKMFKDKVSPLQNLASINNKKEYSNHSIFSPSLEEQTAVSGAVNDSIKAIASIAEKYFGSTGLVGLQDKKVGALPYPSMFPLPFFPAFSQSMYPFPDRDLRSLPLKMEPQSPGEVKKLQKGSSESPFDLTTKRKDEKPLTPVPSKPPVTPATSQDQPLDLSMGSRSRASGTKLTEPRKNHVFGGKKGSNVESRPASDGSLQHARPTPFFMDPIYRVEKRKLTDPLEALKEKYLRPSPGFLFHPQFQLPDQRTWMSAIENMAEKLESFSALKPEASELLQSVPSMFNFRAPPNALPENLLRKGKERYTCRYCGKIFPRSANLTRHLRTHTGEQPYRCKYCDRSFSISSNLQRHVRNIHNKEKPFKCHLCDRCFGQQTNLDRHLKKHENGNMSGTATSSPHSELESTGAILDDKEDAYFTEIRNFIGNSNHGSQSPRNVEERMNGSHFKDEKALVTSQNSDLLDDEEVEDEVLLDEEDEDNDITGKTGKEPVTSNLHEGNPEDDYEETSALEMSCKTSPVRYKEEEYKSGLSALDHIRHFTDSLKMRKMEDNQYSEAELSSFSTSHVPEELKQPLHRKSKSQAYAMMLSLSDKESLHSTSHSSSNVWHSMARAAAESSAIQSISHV
Flag-tagged EVI1-S436A (Q03112, form named): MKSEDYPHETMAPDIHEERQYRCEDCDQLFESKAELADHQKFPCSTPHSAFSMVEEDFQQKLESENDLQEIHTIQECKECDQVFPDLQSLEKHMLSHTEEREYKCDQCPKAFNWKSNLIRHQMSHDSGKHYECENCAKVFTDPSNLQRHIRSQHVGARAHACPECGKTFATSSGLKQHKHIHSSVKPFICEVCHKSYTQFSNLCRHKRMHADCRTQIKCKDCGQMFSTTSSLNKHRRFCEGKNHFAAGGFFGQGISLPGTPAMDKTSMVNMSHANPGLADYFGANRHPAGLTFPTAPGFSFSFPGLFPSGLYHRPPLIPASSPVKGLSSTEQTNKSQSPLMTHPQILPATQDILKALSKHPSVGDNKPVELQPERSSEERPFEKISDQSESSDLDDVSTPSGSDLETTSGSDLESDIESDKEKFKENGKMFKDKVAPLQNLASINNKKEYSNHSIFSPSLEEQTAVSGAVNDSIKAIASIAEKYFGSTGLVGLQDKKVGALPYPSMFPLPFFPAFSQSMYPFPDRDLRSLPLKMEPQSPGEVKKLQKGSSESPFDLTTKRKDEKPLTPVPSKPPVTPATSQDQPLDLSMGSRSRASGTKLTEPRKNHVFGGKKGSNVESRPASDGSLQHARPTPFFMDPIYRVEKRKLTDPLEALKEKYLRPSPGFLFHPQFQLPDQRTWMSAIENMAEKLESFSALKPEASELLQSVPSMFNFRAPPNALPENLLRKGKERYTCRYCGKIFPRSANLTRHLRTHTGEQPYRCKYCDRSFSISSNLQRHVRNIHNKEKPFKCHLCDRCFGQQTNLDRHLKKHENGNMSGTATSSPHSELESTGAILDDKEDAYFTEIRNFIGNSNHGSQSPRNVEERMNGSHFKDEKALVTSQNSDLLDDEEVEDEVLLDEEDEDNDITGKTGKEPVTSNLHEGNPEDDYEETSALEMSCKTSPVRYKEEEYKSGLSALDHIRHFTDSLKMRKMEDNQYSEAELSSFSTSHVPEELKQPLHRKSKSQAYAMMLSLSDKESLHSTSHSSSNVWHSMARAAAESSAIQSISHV
UniProt P68400: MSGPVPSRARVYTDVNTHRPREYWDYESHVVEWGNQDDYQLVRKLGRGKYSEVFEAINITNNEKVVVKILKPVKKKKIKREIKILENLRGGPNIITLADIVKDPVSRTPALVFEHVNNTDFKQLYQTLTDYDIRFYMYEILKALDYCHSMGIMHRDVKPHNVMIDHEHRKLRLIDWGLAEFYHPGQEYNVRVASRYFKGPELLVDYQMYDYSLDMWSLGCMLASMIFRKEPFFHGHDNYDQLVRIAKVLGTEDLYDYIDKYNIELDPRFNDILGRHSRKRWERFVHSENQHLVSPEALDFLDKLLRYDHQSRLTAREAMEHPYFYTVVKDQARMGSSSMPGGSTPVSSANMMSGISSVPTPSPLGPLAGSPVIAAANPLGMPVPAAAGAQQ
UniProt Q00526: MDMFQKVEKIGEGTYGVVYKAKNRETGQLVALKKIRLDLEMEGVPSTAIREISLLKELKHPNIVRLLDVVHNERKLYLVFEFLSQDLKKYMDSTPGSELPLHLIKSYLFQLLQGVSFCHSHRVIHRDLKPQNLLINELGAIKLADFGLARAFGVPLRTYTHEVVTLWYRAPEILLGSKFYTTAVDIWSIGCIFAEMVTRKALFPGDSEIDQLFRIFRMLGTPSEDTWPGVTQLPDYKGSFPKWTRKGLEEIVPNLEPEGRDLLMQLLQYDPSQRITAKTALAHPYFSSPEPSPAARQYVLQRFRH

Tests used:
Assay in all cases: affinity purification with mass spectrometry; FLAG-IP of HEK293 cells expressing FLAG-tagged EVI1-WT or EVI1-S436A versus empty vector control; in-gel digested samples analysed by MS; CRAPome used to consider nonspecific interactions
[1] = molecular target: Flag-tagged EVI1-WT (human) (UniProt Q03112)
[2] = molecular target: Flag-tagged EVI1-WT (human) (UniProt Q03112); remark: listed apart in the source
[3] = molecular target: Flag-tagged EVI1-S436A (human) (UniProt Q03112)

- binding [1]: binds
Molecule: casein kinase CSNK2A1 (from UniProt P68400 1-391) (enzyme)

- binding [1]: binds
Molecule: CDK3 (from UniProt Q00526 1-305) (enzyme)

- binding [2]: no binding
- binding [3]: binds
B1: PRDX1 (protein, UniProt Q06830 1-199)
chain: MSSGNAKIGHPAPNFKATAVMPDGQFKDISLSDYKGKYVVFFFYPLDFTFVCPTEIIAFSDRAEEFKKLNCQVIGASVDSHFCHLAWVNTPKKQGGLGPMNIPLVSDPKRTIAQDYGVLKADEGISFRGLFIIDDKGILRQITVNDLPVGRSVDETLRLVQAFQFTDKHGEVCPAGWKPGSDTIKPDVQKSKEYFSKQK

Like-named read-outs stand apart in the source and are kept apart here. No constants are given. Whether binding was seen depends on the method and setting. In cells and extracts the contact can be indirect. These calls come from enrichment with a bait or labelling near it, and not all partners need be listed. For some of these results: No binding means not detected with the bait. One block for each molecule: values may come before it.
